These are yes or no findings as the source states them, for the method shown. Some entries that bind do so weakly or less than the wild type.
Columns and labels:
[1] = biological target: APOBEC3G, wild type (human), Q9HC16; experiment: AFM imaging; 70 nM A3G incubated 10 min with linearized m13 ssDNA in 10 mM Tris, 2.5 mM NaCl; deposited on APTES coated mica, imaged in liquid; monomers per cluster on ssDNA from cluster volume; both purified; conditions: remark: other sources report otherwise
[2] = biological target: APOBEC3G, wild type (human), Q9HC16; experiment: optical tweezers (single-molecule ssDNA extension); fraction of bound A3G that stays stably bound after washing with buffer, against incubation time (200 to 1000 s) at 50 nM; single exponential fit gives the oligomerization rate on ssDNA at 80 pN; both purified; conditions: remark: other sources report otherwise

- binding [1]: binds
- binding [2]: binds
B1: APOBEC3G, wild type, Q9HC16 1-384 (enzyme)
chain: MKPHFRNTVERMYRDTFSYNFYNRPILSRRNTVWLCYEVKTKGPSRPPLDAKIFRGQVYSELKYHPEMRFFHWFSKWRKLHRDQEYEVTWYISWSPCTKCTRDMATFLAEDPKVTLTIFVARLYYFWDPDYQEALRSLCQKRDGPRATMKIMNYDEFQHCWSKFVYSQRELFEPWNNLPKYYILLHIMLGEILRHSMDPPTFTFNFNNEPWVRGRHETYLCYEVERMHNDTWVLLNQRRGFLCNQAPHKHGFLEGRHAELCFLDVIPFWKLDLDQDYRVTCFTSWSPCFSCAQEMAKFISKNKHVSLCIFTARIYDDQGRCQEGLRTLAEAGAKISIMTYSEFKHCWDTFVDHQGCPFQPWDGLDEHSQDLSGRLRAILQNQEN
